The target of the assay is tubulin βIII isoform, endogenous in Wt Ras MEFs (mouse (endogenous in Ras MEFs)) (UniProt Q9ERD7). Briefly: co-IP; 500 µg whole cell extract of Wt Ras MEFs in RIPA-TRIS EDTA buffer, anti-β-III tubulin (D71G9) plus DynaBeads Protein G overnight, immunoblot for VDAC1; rabbit IgG as negative control; cells from normoxia or hypoxia. On the technique in general: A western blot detects proteins with antibodies after separation by electrophoresis.

Sequences of proteins named here, by UniProt entry; tags and fusion partners are left off. A change or cut given only in a name is not applied to a line headed by its entry.
UniProt Q9ERD7: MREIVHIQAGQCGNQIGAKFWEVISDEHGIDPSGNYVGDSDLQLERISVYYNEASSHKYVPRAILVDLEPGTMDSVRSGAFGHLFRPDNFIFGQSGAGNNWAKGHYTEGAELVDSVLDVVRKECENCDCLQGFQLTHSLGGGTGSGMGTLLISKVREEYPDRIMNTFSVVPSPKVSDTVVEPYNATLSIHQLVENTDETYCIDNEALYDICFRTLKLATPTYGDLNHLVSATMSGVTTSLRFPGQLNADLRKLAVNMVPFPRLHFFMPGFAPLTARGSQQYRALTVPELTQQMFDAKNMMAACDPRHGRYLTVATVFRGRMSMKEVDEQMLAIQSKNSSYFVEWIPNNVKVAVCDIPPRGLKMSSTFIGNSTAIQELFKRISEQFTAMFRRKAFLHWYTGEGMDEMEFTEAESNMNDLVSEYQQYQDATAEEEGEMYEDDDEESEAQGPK
UniProt Q60932: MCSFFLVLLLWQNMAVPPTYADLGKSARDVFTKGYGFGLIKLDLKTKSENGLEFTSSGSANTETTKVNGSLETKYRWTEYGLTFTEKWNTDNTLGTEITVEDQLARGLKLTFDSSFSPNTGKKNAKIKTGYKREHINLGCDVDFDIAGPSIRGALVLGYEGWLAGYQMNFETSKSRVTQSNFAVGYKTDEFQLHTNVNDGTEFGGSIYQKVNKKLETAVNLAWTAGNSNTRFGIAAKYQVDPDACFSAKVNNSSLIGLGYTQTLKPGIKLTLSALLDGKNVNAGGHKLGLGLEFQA

Consider one substance from paper PMC7700438.

These are yes or no findings as the source states them, for the method shown. In cells and extracts the contact can be indirect. Binding can be weak; no strength is given.

“Voltage-dependent anion channel 1 (VDAC1), endogenous in Wt Ras MEFs (from UniProt Q60932)”: the binding result is on record as “binds”.
